PubChem BioAssay AID504764, Drosophila RNAi Screening Center – 2011
Aim: 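Genes whose knock-down alters Notch-dependent transcription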 (primary screen). Cells: Drosophila Kc167 cells. Knock-down reagent: long dsRNA against Drosophila genes. Timing: about 5 days (4 days dsRNA, then 24 h after transfection). Treatment: transfection of constitutively active membrane-tethered Notch lacking the extracellular domain, read 24 h later. Measurement: 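Firefly luciferase from an E(spl)m3 reporter with active Notch, plus control-promoter and uninduced reporter wells for normalisation; unnormalised counts, duplicate wells a and b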. Direction: induced reporter light, run 1, well a and induced reporter light, run 1, well b: higher = more light from the Notch target reporter with active Notch; control promoter light, run 1, well a and control promoter light, run 1, well b: higher = more light from the viral control promoter (cell number, transfection, viability); uninduced reporter light, run 1, well a: higher = more light from the Notch target reporter without active Notch. Rule for the call: 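Wells with low control signal or poorly matching duplicates excluded; duplicates averaged; per source plate, z beyond ±2 for induced/control log2 ratio or beyond ±1.8 for induced/uninduced marks a hit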. Meaning of the calls: active = modifier hit (raised or lowered Notch signal); inactive = not a hit.
The screen tested about 22,000 reagents; below is an unselected part of those with a known target gene and a result. In the full data, 403 (1.9%) got an active call. 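Unnormalised raw counts per well; ratio z-scores behind the hit calls and whether each hit raises or lowers signal are not deposited.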 A plus sign joins genes that one reagent is predicted to hit. The record does not give: the amount of reagent.

| gene | DRSC id | induced reporter light, run 1, well a | induced reporter light, run 1, well b | control promoter light, run 1, well a | control promoter light, run 1, well b | uninduced reporter light, run 1, well a | call |
| --- | --- | --- | --- | --- | --- | --- | --- |
| CG17739 (GeneID 36333) | DRSC06689 | 2.30e5 | 1.92e5 | 1.70e5 | 1.53e5 | 14665 | inactive |
| mgr (GeneID 41365) | DRSC16099 | 75590 | 55055 | 52740 | 43220 | 4715 | inactive |
| Cnep1r1 (GeneID 3355167) | DRSC20620 | 1.12e5 | 1.14e5 | 1.53e5 | 1.60e5 | 13905 | inactive |
| LanB1 (GeneID 34068) | DRSC03360 | 77770 | 79330 | 57435 | 62880 | 5600 | inactive |
| GstE1 (GeneID 37106) | DRSC07437 | 65065 | 72100 | 89575 | 76195 | 6195 | inactive |
| APC7 (GeneID 31594) | DRSC17937 | 1.93e5 | 1.65e5 | 2.16e5 | 1.85e5 | 11665 | inactive |
| muskelin (GeneID 36386) | DRSC07273 | 1.01e5 | 87940 | 1.26e5 | 1.30e5 | 8282 | inactive |
| SkpE (GeneID 32997) | DRSC19431 | 83615 | 90185 | 65715 | 1.14e5 | 10285 | inactive |
| CG33095 (GeneID 43012) | DRSC14441 | 1.44e5 | 1.49e5 | 2.04e5 | 1.94e5 | 14490 | inactive |
| CG30383 (GeneID 246583) | DRSC05062 | 49025 | 46785 | 62020 | 59500 | 2388 | inactive |
| Eip93F (GeneID 44936) | DRSC13527 | 72060 | 73910 | 90895 | 70900 | 10675 | inactive |
| Eip93F (GeneID 44936) | DRSC16661 | 31970 | 37330 | 27850 | 26460 | 4880 | inactive |
| pinta (GeneID 42635) | DRSC14698 | 1.59e5 | 1.42e5 | 1.21e5 | 1.48e5 | 15125 | inactive |
| CG15478 (GeneID 31679) | DRSC18057 | 1.77e5 | 1.58e5 | 2.28e5 | 2.33e5 | 11780 | inactive |
| CG42656 (GeneID 10178806) | DRSC12472 | 1.06e5 | 1.25e5 | 1.21e5 | 1.12e5 | 9175 | inactive |
| mthl13 (GeneID 246395) | DRSC05238 | 2.85e5 | 2.43e5 | 3.50e5 | 3.47e5 | 22575 | inactive |
| Coa8 (GeneID 31148) | DRSC17959 | 1.40e5 | 1.18e5 | 2.14e5 | 2.12e5 | 9835 | inactive |
| Pp2A-29B (GeneID 2768940) | DRSC03400 | 1.60e5 | 1.90e5 | 85430 | 1.03e5 | 19840 | inactive |
| CG16798 (GeneID 35308) | DRSC02517 | 49300 | 37470 | 43135 | 40085 | 2750 | inactive |
| CG15412 (GeneID 33553) | DRSC00427 | 1.60e5 | 1.67e5 | 2.18e5 | 2.45e5 | 12940 | inactive |
| CG18636 (GeneID 2768923) | DRSC02685 | 1.18e5 | 1.51e5 | 1.23e5 | 1.31e5 | 12930 | inactive |
| CG31789 (GeneID 318943) | DRSC01645 | 81775 | 81450 | 1.07e5 | 84405 | 7045 | inactive |
| Pura (GeneID 2768948) | DRSC08891 | 1.85e5 | 1.78e5 | 1.48e5 | 1.83e5 | 11345 | inactive |
| Pura (GeneID 2768948) | DRSC10862 | 1.60e5 | 1.24e5 | 1.59e5 | 1.49e5 | 7700 | inactive |
| Pura (GeneID 2768948) | DRSC10864 | 1.78e5 | 1.67e5 | 1.69e5 | 1.48e5 | 6935 | inactive |
| Pura (GeneID 2768948) | DRSC10865 | 1.58e5 | 1.31e5 | 1.57e5 | 1.30e5 | 9650 | inactive |
| Pura (GeneID 2768948) | DRSC10866 | 2.67e5 | 2.13e5 | 2.97e5 | 2.26e5 | 10570 | inactive |
| NimC1 (GeneID 34816) | DRSC01879 | 1.10e5 | 1.20e5 | 1.14e5 | 1.28e5 | 9765 | inactive |
| ppk10 (GeneID 3885617) | DRSC01123 | 1.55e5 | 1.49e5 | 1.70e5 | 1.52e5 | 12440 | inactive |
| PIG-F (GeneID 40139) | DRSC11069 | 1.59e5 | 1.15e5 | 1.20e5 | 88230 | 7045 | inactive |
| Cadps (GeneID 49968) | DRSC21057 | 84745 | 1.02e5 | 80340 | 96555 | 8790 | inactive |
| Cadps (GeneID 49968) | DRSC22200 | – | – | – | – | – | inactive |
| CG2790 (GeneID 37992) | DRSC04045 | 1.79e5 | 1.79e5 | 1.50e5 | 1.22e5 | 11660 | inactive |
| CG13895 (GeneID 38087) | DRSC08365 | 1.68e5 | 1.16e5 | 2.13e5 | 2.10e5 | 7880 | inactive |
| CG17124 (GeneID 34485) | DRSC02580 | 1.25e5 | 1.34e5 | 69185 | 94650 | 14920 | inactive |
| Lsm12a (GeneID 32167) | DRSC19702 | 1.48e5 | 1.42e5 | 3.61e5 | 3.18e5 | 11450 | inactive |
| Mocs2A + Mocs2B | DRSC13697 | 2.61e5 | 2.22e5 | 3.33e5 | 2.82e5 | 14215 | inactive |
| Mocs2A + Mocs2B | DRSC14219 | 1.53e5 | 1.69e5 | 2.60e5 | 1.68e5 | 14080 | inactive |
| Tsp86D (GeneID 41310) | DRSC15607 | 51810 | 64715 | 72480 | 48490 | 4260 | inactive |
| grk (GeneID 34171) | DRSC03540 | 2.48e5 | 2.26e5 | 2.18e5 | 1.57e5 | 20565 | inactive |
| CG31546 (GeneID 40691) | DRSC12317 | 1.35e5 | 1.10e5 | 1.03e5 | 85040 | 11125 | inactive |
| CG12419 (retired record) (GeneID 41218) | DRSC14513 | 10865 | 11335 | 15555 | 15425 | 1430 | inactive |
| CG7997 (GeneID 36829) | DRSC07052 | 1.21e5 | 1.13e5 | 2.09e5 | 1.98e5 | 8960 | inactive |
| Sos (GeneID 34790) | DRSC03439 | 1.06e5 | 1.25e5 | 71625 | 69935 | 8815 | active |
| 5-HT1A (GeneID 37196) | DRSC05030 | 93625 | 73585 | 1.15e5 | 92935 | 6010 | inactive |
| CG13088 (GeneID 34180) | DRSC02192 | 1.31e5 | 1.49e5 | 78525 | 1.18e5 | 15840 | inactive |
| ced-6 (GeneID 35971) | DRSC07591 | 1.46e5 | 1.49e5 | 1.91e5 | 1.60e5 | 14528 | inactive |
| CG13454 (GeneID 39676) | DRSC10001 | 1.74e5 | 1.88e5 | 2.64e5 | 2.29e5 | 14310 | inactive |
| jtb (GeneID 36838) | DRSC06868 | 32165 | 32825 | 53900 | 55025 | 3432 | inactive |
| CG13708 (GeneID 38582) | DRSC08317 | 2.08e5 | 2.14e5 | 2.23e5 | 1.92e5 | 9615 | inactive |

Active calls, among the entries above:
| gene | DRSC id | induced reporter light, run 1, well a | induced reporter light, run 1, well b | control promoter light, run 1, well a | control promoter light, run 1, well b | uninduced reporter light, run 1, well a | call |
| --- | --- | --- | --- | --- | --- | --- | --- |
| Sos (GeneID 34790) | DRSC03439 | 1.06e5 | 1.25e5 | 71625 | 69935 | 8815 | active |
